No constants are given. Whether binding was seen depends on the method and setting. Binding calls can cover weak binding; strength is not graded here. For some assays here: Binding seen in cells or lysates may run through a third protein.
Experiments:
[1] = target: recombinant P. berghei sporozoite phospholipid scramblase (PbPLS) (P. berghei); assay: ELISA; recombinant PbPLS attached overnight to a Ni-coated plate, blocked with 1% BSA in PBS, mouse hepatocyte lysate added; CPS1 detected with anti-CPS1 antibody and alkaline phosphatase-conjugated secondary antibody; normalised to anti-S-tag antibody binding; only the target purified
[2] = target: recombinant P. berghei sporozoite phospholipid scramblase (PbPLS) (P. berghei); assay: pull-down; recombinant pET-PLS on S-tag agarose beads incubated overnight with primary mouse hepatocyte lysate in 1% Triton X100; eluates blotted with anti-CPS1 or anti-VWA8 antibody; only the target purified

B1: carbamoyl-phosphate synthetase 1 (CPS1), mouse hepatocyte (protein, UniProt Q8C196 39-1500)
chain: LSVKAKTAHIVLEDGTKMKGYSFGHPSSVAGEVVFNTGLGGYPEALTDPAYKGQILTMANPIIGNGGAPDTTARDELGLNKYMESDGIKVAGLLVLNYSNDYNHWLATKSLGQWLQEEKVPAIYGVDTRMLTKIIRDKGTMLGKIEFEGQSVDFVDPNKQNLIAEVSTKDVKVFGKGNPTKVVAVDCGIKNNVIRLLVKRGAEVHLVPWNHDFTQMEYDGLLIAGGPGNPALAQPLIQNVKKILESDRKEPLFGISTGNIITGLAAGAKSYKMSMANRGQNQPVLNITNRQAFITAQNHGYALDNTLPAGWKPLFVNVNDQTNEGIMHESKPFFAVQFHPEVSPGPTDTEYLFDSFFSLIKKGKGTTITSVLPKPALVASRVEVSKVLILGSGGLSIGQAGEFDYSGSQAVKAMKEENVKTVLMNPNIASVQTNEVGLKQADAVYFLPITPQFVTEVIKAERPDGLILGMGGQTALNCGVELFKRGVLKEYGVKVLGTSVESIMATEDRQLFSDKLNEINEKIAPSFAVESMEDALKAADTIGYPVMIRSAYALGGLGSGICPNKETLIDLGTKAFAMTNQILVERSVTGWKEIEYEVVRDADDNCVTVCNMENVDAMGVHTGDSVVVAPAQTLSNAEFQMLRRTSVNVVRHLGIVGECNIQFALHPTSMEYCIIEVNARLSRSSALASKATGYPLAFIAAKIALGIPLPEIKNVVSGKTSACFEPSLDYMVTKIPRWDLDRFHGTSSRIGSSMKSVGEVMAIGRTFEESFQKALRMCHPSVDGFTPRLPMNKEWPANLDLKKELSEPSSTRIYAIAKALENNMSLDEIVRLTSIDKWFLYKMRDILNMDKTLKGLNSDSVTEETLRKAKEIGFSDKQISKCLGLTEAQTRELRLKKNIHPWVKQIDTLAAEYPSVTNYLYVTYNGQEHDIKFDEHGIMVLGCGPYHIGSSVEFDWCAVSSIRTLRQLGKKTVVVNCNPETVSTDFDECDKLYFEELSLERILDIYHQEACNGCIISVGGQIPNNLAVPLYKNGVKIMGTSPLQIDRAEDRSIFSAVLDELKVAQAPWKAVNTLNEALEFANSVGYPCLLRPSYVLSGSAMNVVFSEDEMKRFLEEATRVSQEHPVVLTKFVEGAREVEMDAVGKEGRVISHAISEHVEDAGVHSGDATLMLPTQTISQGAIEKVKDATRKIAKAFAISGPFNVQFLVKGNDVLVIECNLRASRSFPFVSKTLGVDFIDVATKVMIGESIDEKRLPTLEQPIIPSDYVAIKAPMFSWPRLRDADPILRCEMASTGEVACFGEGIHTAFLKAMLSTGFKIPQKGILIGIQQSFRPRFLGVAEQLHNEGFKLFATEATSDWLNANNVPATPVAWPSQEGQNPSLSSIRKLIRDGSIDLVINLPNNNTKFVHDNYVIRRTAVDSGIALLTNFQVTKLFAEAVQKSRTVDSKSLFHYRQYSAGKAA
With B1 the binding [1] was “binds” and the binding [2] was “binds”.

— PMC8604956
